Data as given in PubChem BioAssay AID1508588 (Peter MacCallum Cancer Centre, 2020)
Shown is an unselected part of about 18,000 deposited reagents. 790 of all reagents (4.4%) were called active. 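Calls rest on a combination of fold-change classes in drug and vehicle arms, not all shown here.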 Reagents against one gene are numbered here.

Screen: 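Which gene losses make BRAF-mutant melanoma cells more responsive to vemurafenib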 (primary screen)
System: human WM266.4 melanoma cells (BRAF V600 mutant)
Reagents: siRNA pool against human genes, 40 nM
Timing: 96 h from transfection to read-out
Conditions: vemurafenib 300 nM (about IC25), added 48 h after transfection, for 48 h; comparison arm got DMSO vehicle only
Measurement: 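Ratios to non-targeting siRNA for cell gain, counted as DAPI nuclei after minus before drug and averaged over two replicates, and for absorbance-read medium lactate per cell; both binned into fold-change classes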
Direction: cell gain with vemurafenib: higher = more cell gain than with non-targeting siRNA; lactate per cell with vemurafenib: higher = more lactate made per cell
Rule for the call: 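a knock-down counts as enhancing when its fold-change classes with vehicle and with vemurafenib, taken together, show a stronger drug effect on cell gain or lactate per cell; exact class pairs not stated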
Meaning of the calls: active = enhances vemurafenib effect; inactive = no enhancement seen

GFOD1 (Gfo/Idh/MocA-like oxidoreductase domain containing 1) #1 — cell gain with vemurafenib = 0.48; lactate per cell with vemurafenib = 1.1; outcome = inactive
GFOD1 (Gfo/Idh/MocA-like oxidoreductase domain containing 1) #2 — cell gain with vemurafenib = 0.48; lactate per cell with vemurafenib = 0.73; outcome = inactive
CBY1 (chibby 1, beta catenin antagonist) — cell gain with vemurafenib = 0.6; lactate per cell with vemurafenib = 0.86; outcome = inactive
KMT2A (lysine methyltransferase 2A) — cell gain with vemurafenib = 1.14; lactate per cell with vemurafenib = 0.68; outcome = inactive
SENP3 (SUMO specific peptidase 3) — cell gain with vemurafenib = 0.62; lactate per cell with vemurafenib = 0.55; outcome = inactive
DOCK8-AS1 (DOCK8 antisense RNA 1) — cell gain with vemurafenib = 0.28; lactate per cell with vemurafenib = 1.7; outcome = inactive
PFN4 (profilin family member 4) — cell gain with vemurafenib = 0.76; lactate per cell with vemurafenib = 0.65; outcome = inactive
GPR132 (G protein-coupled receptor 132) — cell gain with vemurafenib = 0.19; lactate per cell with vemurafenib = 2.22; outcome = inactive
ALOX15 (arachidonate 15-lipoxygenase) — cell gain with vemurafenib = 0.54; lactate per cell with vemurafenib = 1.4; outcome = inactive
CSF2RA (colony stimulating factor 2 receptor subunit alpha) — cell gain with vemurafenib = 0.69; lactate per cell with vemurafenib = 0.64; outcome = inactive
VASH1 (vasohibin 1) — cell gain with vemurafenib = 0.26; lactate per cell with vemurafenib = 1.71; outcome = inactive
TMEM100 (transmembrane protein 100) — cell gain with vemurafenib = 0.61; lactate per cell with vemurafenib = 0.94; outcome = inactive
WDR44 (WD repeat domain 44) — cell gain with vemurafenib = 0.68; lactate per cell with vemurafenib = 0.9; outcome = inactive
CLPSL1 (colipase like 1) — cell gain with vemurafenib = 0.88; lactate per cell with vemurafenib = 0.44; outcome = active
NXPH3 (neurexophilin 3) — cell gain with vemurafenib = 0.45; lactate per cell with vemurafenib = 1.16; outcome = inactive
GPR162 (G protein-coupled receptor 162) — cell gain with vemurafenib = 0.18; lactate per cell with vemurafenib = 2.3; outcome = inactive
ROPN1B (rhophilin associated tail protein 1B) — cell gain with vemurafenib = 1.26; lactate per cell with vemurafenib = 0.86; outcome = inactive
IFT20 (intraflagellar transport 20) — cell gain with vemurafenib = 0.72; lactate per cell with vemurafenib = 0.62; outcome = inactive
SLC22A17 — cell gain with vemurafenib = 0.97; lactate per cell with vemurafenib = 1.01; outcome = inactive
STAG3L1 (STAG3 cohesin complex component like 1 (pseudogene)) — cell gain with vemurafenib = 0.48; lactate per cell with vemurafenib = 0.87; outcome = inactive
ECSCR — cell gain with vemurafenib = 0.43; lactate per cell with vemurafenib = 0.89; outcome = inactive
NOP9 (NOP9 nucleolar protein) — cell gain with vemurafenib = 0.25; lactate per cell with vemurafenib = 1.37; outcome = inactive
NTM (neurotrimin) — cell gain with vemurafenib = 0.28; lactate per cell with vemurafenib = 0.67; outcome = inactive
MAD2L1BP (MAD2L1 binding protein) — cell gain with vemurafenib = 0.76; lactate per cell with vemurafenib = 0.86; outcome = inactive
SPANXA2 (SPANX family member A2) — cell gain with vemurafenib = -0.23; lactate per cell with vemurafenib = -0.43; outcome = inactive
NDRG3 (NDRG family member 3) — cell gain with vemurafenib = 1.16; lactate per cell with vemurafenib = 0.2; outcome = inactive
DOCK3 (dedicator of cytokinesis 3) — cell gain with vemurafenib = 1.1; lactate per cell with vemurafenib = 0.7; outcome = inactive

Only “cell gain with vemurafenib”, for 2 of the entries above:
WDR44 (WD repeat domain 44) = 0.68
CLPSL1 (colipase like 1) = 0.88
